Drawing on PMC2396500, this text covers binding for five molecules.

Results are given in words; binding and its absence hold for the method and conditions named. For some assays here: In cells and extracts the contact can be indirect. Some results given as binding are weak or reduced against the parent protein; the word gives no strength. For some assays here: Tags and fused reporters may be left off the sequences shown.

The target in experiment [1] is T1, Arabidopsis CUL4 (Arabidopsis thaliana (endogenous in plants)) (UniProt Q8LGH4).
T1 sequence: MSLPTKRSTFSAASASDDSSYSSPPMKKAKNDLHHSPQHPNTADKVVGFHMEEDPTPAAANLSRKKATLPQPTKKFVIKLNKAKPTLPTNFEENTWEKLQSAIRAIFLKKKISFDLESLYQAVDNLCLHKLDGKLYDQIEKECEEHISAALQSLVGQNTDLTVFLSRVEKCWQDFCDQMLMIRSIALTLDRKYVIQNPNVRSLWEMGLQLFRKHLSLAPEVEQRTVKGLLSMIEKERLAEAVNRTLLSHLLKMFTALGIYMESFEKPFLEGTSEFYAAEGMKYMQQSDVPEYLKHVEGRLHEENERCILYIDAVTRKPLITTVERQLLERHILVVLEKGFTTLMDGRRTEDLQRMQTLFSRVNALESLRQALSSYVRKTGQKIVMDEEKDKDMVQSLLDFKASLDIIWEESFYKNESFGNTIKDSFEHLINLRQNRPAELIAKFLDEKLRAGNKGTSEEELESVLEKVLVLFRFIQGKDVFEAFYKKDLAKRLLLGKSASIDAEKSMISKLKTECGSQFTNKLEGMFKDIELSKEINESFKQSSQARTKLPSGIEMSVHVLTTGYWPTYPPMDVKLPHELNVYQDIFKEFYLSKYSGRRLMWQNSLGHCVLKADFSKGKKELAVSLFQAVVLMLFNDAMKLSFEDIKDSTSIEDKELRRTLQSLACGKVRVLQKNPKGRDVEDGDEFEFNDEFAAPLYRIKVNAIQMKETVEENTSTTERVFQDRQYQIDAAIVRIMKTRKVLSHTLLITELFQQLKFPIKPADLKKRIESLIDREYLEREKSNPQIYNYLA
The experiment is described as follows: co-IP; extracts of WT, pOEX4GFP-DDB2 and ddb1a-2 pOEX2DDB1A-GFP Arabidopsis plants; immunoprecipitation with either anti-CUL4 or anti-GFP antibodies; WT plants as controls.

In experiment [2] the target is T2, Arabidopsis DDB1A (yeast two-hybrid fusion) (Arabidopsis thaliana) (UniProt Q9M0V3).
T2 sequence: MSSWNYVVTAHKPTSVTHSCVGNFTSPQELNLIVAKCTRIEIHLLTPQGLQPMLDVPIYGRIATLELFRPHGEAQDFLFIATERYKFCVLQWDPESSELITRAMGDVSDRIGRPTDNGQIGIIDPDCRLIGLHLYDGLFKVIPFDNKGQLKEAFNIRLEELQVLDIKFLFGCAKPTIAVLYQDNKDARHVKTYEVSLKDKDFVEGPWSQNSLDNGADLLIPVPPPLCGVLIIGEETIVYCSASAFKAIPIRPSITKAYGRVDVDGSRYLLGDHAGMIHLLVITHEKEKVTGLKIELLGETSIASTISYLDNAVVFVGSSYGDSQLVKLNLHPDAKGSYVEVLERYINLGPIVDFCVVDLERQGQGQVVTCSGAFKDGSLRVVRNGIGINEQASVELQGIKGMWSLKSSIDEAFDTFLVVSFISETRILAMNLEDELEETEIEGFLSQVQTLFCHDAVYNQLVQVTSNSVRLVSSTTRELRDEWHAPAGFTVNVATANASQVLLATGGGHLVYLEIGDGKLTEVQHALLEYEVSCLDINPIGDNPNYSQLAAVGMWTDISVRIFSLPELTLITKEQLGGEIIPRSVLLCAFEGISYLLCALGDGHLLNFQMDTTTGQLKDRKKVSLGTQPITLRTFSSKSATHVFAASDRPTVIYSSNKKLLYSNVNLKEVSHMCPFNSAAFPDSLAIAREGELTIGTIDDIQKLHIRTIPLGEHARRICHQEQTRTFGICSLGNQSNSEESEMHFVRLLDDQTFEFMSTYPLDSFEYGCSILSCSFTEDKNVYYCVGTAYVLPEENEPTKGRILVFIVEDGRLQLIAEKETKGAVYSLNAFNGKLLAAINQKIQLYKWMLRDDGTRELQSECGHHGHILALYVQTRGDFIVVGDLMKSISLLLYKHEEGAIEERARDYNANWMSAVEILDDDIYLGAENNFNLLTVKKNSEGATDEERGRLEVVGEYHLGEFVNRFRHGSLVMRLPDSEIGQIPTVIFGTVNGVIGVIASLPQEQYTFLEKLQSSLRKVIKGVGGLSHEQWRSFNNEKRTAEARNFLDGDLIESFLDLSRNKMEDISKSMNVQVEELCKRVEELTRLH
Kind of experiment: two-hybrid; yeast two-hybrid; no auto-activation by the single plasmids on LTA medium.

For experiment [3], the target named is T1, Arabidopsis CUL4 (Arabidopsis thaliana (endogenous in plants)). The experiment is described as follows: co-IP; extracts of WT Arabidopsis plants; immunoprecipitation with anti-CUL4 antibody; CUL4 and DDB2 detected before and 15 min upon UV-C exposure.

B1: DDB1A-GFP fusion protein (protein, UniProt Q9M0V3 1-1088)
chain: MSSWNYVVTAHKPTSVTHSCVGNFTSPQELNLIVAKCTRIEIHLLTPQGLQPMLDVPIYGRIATLELFRPHGEAQDFLFIATERYKFCVLQWDPESSELITRAMGDVSDRIGRPTDNGQIGIIDPDCRLIGLHLYDGLFKVIPFDNKGQLKEAFNIRLEELQVLDIKFLFGCAKPTIAVLYQDNKDARHVKTYEVSLKDKDFVEGPWSQNSLDNGADLLIPVPPPLCGVLIIGEETIVYCSASAFKAIPIRPSITKAYGRVDVDGSRYLLGDHAGMIHLLVITHEKEKVTGLKIELLGETSIASTISYLDNAVVFVGSSYGDSQLVKLNLHPDAKGSYVEVLERYINLGPIVDFCVVDLERQGQGQVVTCSGAFKDGSLRVVRNGIGINEQASVELQGIKGMWSLKSSIDEAFDTFLVVSFISETRILAMNLEDELEETEIEGFLSQVQTLFCHDAVYNQLVQVTSNSVRLVSSTTRELRDEWHAPAGFTVNVATANASQVLLATGGGHLVYLEIGDGKLTEVQHALLEYEVSCLDINPIGDNPNYSQLAAVGMWTDISVRIFSLPELTLITKEQLGGEIIPRSVLLCAFEGISYLLCALGDGHLLNFQMDTTTGQLKDRKKVSLGTQPITLRTFSSKSATHVFAASDRPTVIYSSNKKLLYSNVNLKEVSHMCPFNSAAFPDSLAIAREGELTIGTIDDIQKLHIRTIPLGEHARRICHQEQTRTFGICSLGNQSNSEESEMHFVRLLDDQTFEFMSTYPLDSFEYGCSILSCSFTEDKNVYYCVGTAYVLPEENEPTKGRILVFIVEDGRLQLIAEKETKGAVYSLNAFNGKLLAAINQKIQLYKWMLRDDGTRELQSECGHHGHILALYVQTRGDFIVVGDLMKSISLLLYKHEEGAIEERARDYNANWMSAVEILDDDIYLGAENNFNLLTVKKNSEGATDEERGRLEVVGEYHLGEFVNRFRHGSLVMRLPDSEIGQIPTVIFGTVNGVIGVIASLPQEQYTFLEKLQSSLRKVIKGVGGLSHEQWRSFNNEKRTAEARNFLDGDLIESFLDLSRNKMEDISKSMNVQVEELCKRVEELTRLH
On to B1, for which, in experiment [1], the binding result is on record as “binds”.

B2: GFP-DDB2 fusion protein (protein, UniProt Q6NQ88 1-557)
chain: MSSTRSRRKRDPEIVIARDTDSELSSSEEEEEEEDNYPFSESEEEDEAVKNGGKIELEKNKAKGKAPITVKLIKKVCKVCKQPGHEAGFKGATYIDCPMKPCFLCKMPGHTTMSCPHRVVTDHGILPTSHRNTKNPIDFVFKRQLQPRIPPIKPKYVIPDQVHCAVIRYHSRRVTCLEFHPTKNNILLSGDKKGQIGVWDFGKVYEKNVYGNIHSVQVNNMRFSPTNDDMVYSASSDGTIGYTDLETGTSSTLLNLNPDGWQGANSWKMLYGMDINSEKGVVLAADNFGFLHMIDHRTNNSTGEPILIHKQGSKVCGLDCNPVQPELLLSCGNDHFARIWDMRKLQPKASLHDLAHKRVVNSAYFSPSSGTKILTTCQDNRIRIWDSIFGNLDLPSREIVHSNDFNRHLTPFKAEWDPKDTSESLIVIGRYISENYNGTALHPIDFIDASNGQLVAEVMDPNITTITPVNKLHPRDDVLASGSSRSLFIWRPQDNTEMVEEKKDKKIIICYGDSKKKGKKQKRGSDDEDDEDDIFSSKGKNIKVNKYQAKTTKKTKT
In the case of B2, the binding entry in experiment [1] is recorded as “binds”.

B3: mutated Arabidopsis DDB2 protein DDB2 (R343H) (yeast two-hybrid fusion) (protein, UniProt Q6NQ88 1-557)
chain: MSSTRSRRKRDPEIVIARDTDSELSSSEEEEEEEDNYPFSESEEEDEAVKNGGKIELEKNKAKGKAPITVKLIKKVCKVCKQPGHEAGFKGATYIDCPMKPCFLCKMPGHTTMSCPHRVVTDHGILPTSHRNTKNPIDFVFKRQLQPRIPPIKPKYVIPDQVHCAVIRYHSRRVTCLEFHPTKNNILLSGDKKGQIGVWDFGKVYEKNVYGNIHSVQVNNMRFSPTNDDMVYSASSDGTIGYTDLETGTSSTLLNLNPDGWQGANSWKMLYGMDINSEKGVVLAADNFGFLHMIDHRTNNSTGEPILIHKQGSKVCGLDCNPVQPELLLSCGNDHFARIWDMHKLQPKASLHDLAHKRVVNSAYFSPSSGTKILTTCQDNRIRIWDSIFGNLDLPSREIVHSNDFNRHLTPFKAEWDPKDTSESLIVIGRYISENYNGTALHPIDFIDASNGQLVAEVMDPNITTITPVNKLHPRDDVLASGSSRSLFIWRPQDNTEMVEEKKDKKIIICYGDSKKKGKKQKRGSDDEDDEDDIFSSKGKNIKVNKYQAKTTKKTKT
Consider B3, for which, in experiment [2], the binding entry was “binds”.

B4: Arabidopsis DDB2 (endogenous) (protein, UniProt Q6NQ88 1-557)
chain: MSSTRSRRKRDPEIVIARDTDSELSSSEEEEEEEDNYPFSESEEEDEAVKNGGKIELEKNKAKGKAPITVKLIKKVCKVCKQPGHEAGFKGATYIDCPMKPCFLCKMPGHTTMSCPHRVVTDHGILPTSHRNTKNPIDFVFKRQLQPRIPPIKPKYVIPDQVHCAVIRYHSRRVTCLEFHPTKNNILLSGDKKGQIGVWDFGKVYEKNVYGNIHSVQVNNMRFSPTNDDMVYSASSDGTIGYTDLETGTSSTLLNLNPDGWQGANSWKMLYGMDINSEKGVVLAADNFGFLHMIDHRTNNSTGEPILIHKQGSKVCGLDCNPVQPELLLSCGNDHFARIWDMRKLQPKASLHDLAHKRVVNSAYFSPSSGTKILTTCQDNRIRIWDSIFGNLDLPSREIVHSNDFNRHLTPFKAEWDPKDTSESLIVIGRYISENYNGTALHPIDFIDASNGQLVAEVMDPNITTITPVNKLHPRDDVLASGSSRSLFIWRPQDNTEMVEEKKDKKIIICYGDSKKKGKKQKRGSDDEDDEDDIFSSKGKNIKVNKYQAKTTKKTKT
Take B4: the binding result in experiment [3] was “binds”.

B5: Arabidopsis DDB2 (yeast two-hybrid fusion) (protein, UniProt Q6NQ88 1-557)
chain: MSSTRSRRKRDPEIVIARDTDSELSSSEEEEEEEDNYPFSESEEEDEAVKNGGKIELEKNKAKGKAPITVKLIKKVCKVCKQPGHEAGFKGATYIDCPMKPCFLCKMPGHTTMSCPHRVVTDHGILPTSHRNTKNPIDFVFKRQLQPRIPPIKPKYVIPDQVHCAVIRYHSRRVTCLEFHPTKNNILLSGDKKGQIGVWDFGKVYEKNVYGNIHSVQVNNMRFSPTNDDMVYSASSDGTIGYTDLETGTSSTLLNLNPDGWQGANSWKMLYGMDINSEKGVVLAADNFGFLHMIDHRTNNSTGEPILIHKQGSKVCGLDCNPVQPELLLSCGNDHFARIWDMRKLQPKASLHDLAHKRVVNSAYFSPSSGTKILTTCQDNRIRIWDSIFGNLDLPSREIVHSNDFNRHLTPFKAEWDPKDTSESLIVIGRYISENYNGTALHPIDFIDASNGQLVAEVMDPNITTITPVNKLHPRDDVLASGSSRSLFIWRPQDNTEMVEEKKDKKIIICYGDSKKKGKKQKRGSDDEDDEDDIFSSKGKNIKVNKYQAKTTKKTKT
In the case of B5, in experiment [2], the binding entry is listed as “binds”.
